Measurements from “University of Dundee, Small-Polar-MMV Screening Library” (2021), ChEMBL document CHEMBL3988442.

Amino acid sequences for entries named in this document (tags omitted).
UniProt E9BF75, entry or part of it: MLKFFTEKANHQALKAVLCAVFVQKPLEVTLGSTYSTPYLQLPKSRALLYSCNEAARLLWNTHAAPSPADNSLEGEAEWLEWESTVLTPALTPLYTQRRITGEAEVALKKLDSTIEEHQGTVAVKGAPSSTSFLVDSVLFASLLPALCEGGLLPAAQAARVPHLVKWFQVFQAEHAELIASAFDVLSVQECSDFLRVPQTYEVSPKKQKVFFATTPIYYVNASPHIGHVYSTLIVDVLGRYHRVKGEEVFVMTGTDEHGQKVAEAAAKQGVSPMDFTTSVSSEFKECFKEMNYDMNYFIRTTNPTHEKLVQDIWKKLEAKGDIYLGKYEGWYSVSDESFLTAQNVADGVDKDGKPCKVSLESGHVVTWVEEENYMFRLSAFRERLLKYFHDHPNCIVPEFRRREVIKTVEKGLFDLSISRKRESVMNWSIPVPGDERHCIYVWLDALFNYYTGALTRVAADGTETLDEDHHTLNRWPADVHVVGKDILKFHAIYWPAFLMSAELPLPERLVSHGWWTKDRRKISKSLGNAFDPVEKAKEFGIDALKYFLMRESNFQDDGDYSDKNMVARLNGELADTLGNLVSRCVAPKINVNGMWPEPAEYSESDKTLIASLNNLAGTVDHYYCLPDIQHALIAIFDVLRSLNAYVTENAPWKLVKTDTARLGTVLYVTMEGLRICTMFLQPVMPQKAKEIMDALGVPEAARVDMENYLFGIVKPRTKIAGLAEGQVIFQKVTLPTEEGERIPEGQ

All values are in %. The controls that fix the scale are not given in the record; negative values are as filed. The compounds are a random part of those screened.

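Primary screen of methionyl-tRNA synthetase; the read-out is not stated. Target: Methionyl-tRNA synthetase (putative), Leishmania donovani (UniProt E9BF75). The test concentration is not given. The values are filed as inhibition. Size under these conditions: about 68,000 compounds, about 24 of them at 50% or above in at least one test.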

Cc1nc(CN2CCO[C@@H]3CN(C(=O)CC4CC4)C[C@@H]3C2)cs1 read 11.76%.
CCN1Cc2cc(F)ccc2N(C(C)=O)CCC1=O read 6.849%.
CCN(CC(C)C#N)C(=O)c1cccc(COc2ccc(C)nc2)c1 (centres undefined) read -0.7634%.
O=C(NCCc1nncn1C1CC1)c1cnn(Cc2ccccc2)c1 read 13.2%.
Cc1cc(C)n(C2CN(CC(=O)N(C)Cc3cnn(C)c3)C2)n1 read 35.54%.
O=C(c1cccnc1)N1CCCC1C1CCN(Cc2ccccc2)CC1 (centres undefined) read 18.16%.
COc1ccc(OC)c(C(C)Nc2nc3c(C)nn(C)c3c(=O)n2C)c1 (centres undefined) read 5.512%.
CN1CC[C@]2(CN(CC3CCOCC3)C[C@H]2c2ccccc2)C1=O read 7.692%.
CC(C1CCN(Cc2ccc(N(C)C)nc2)CC1)N(C)C (centres undefined) read 10.14%.
O=C1CN(Cc2ccc3ccccc3n2)CCN1C1CCCC1 read 12.07%.
O=C(c1cocn1)N1CCC[C@]2(C[C@@H](Oc3ncccc3F)CO2)C1 read 21.88%.
CCc1cc(N(C)Cc2ccncn2)n2nccc2n1 read 2.046%.
CCc1nc(C)c(C(C)N(C)CCc2ccncc2)s1 (centres undefined) read 6.25%.
CCc1n[nH]c(C2CN(C(=O)CCc3cscn3)CCO2)n1 (centres undefined) read 18.42%.
CCn1cc(S(=O)(=O)N2CCC(C)Sc3ccccc32)cn1 (centres undefined) read 3.064%.
Cc1cc(C(=O)N2CCc3ncc(CN4CCCCC4)n3CC2)no1 read 4.482%.
CC(C)(C)c1ncc(C(=O)NCCS(N)(=O)=O)s1 read 17.32%.
Cc1nc(N2CCCC2)nc(C)c1NS(=O)(=O)c1ccccc1F read 13.67%.
Cc1cc2[nH]c(CN3CCOC(Cc4ccccc4)C3)cc(=O)n2n1 (centres undefined) read 8.247%.
COc1ccc(OC)c(CNC(=O)N2CCC(n3cncn3)CC2)c1 read 4.558%.
Cc1ccc(N2CC[C@@H]3[C@@H]2CCN3Cc2ccsc2)nn1 read 20.26%.
CCNC(=O)N1CCN(C(=O)c2cc(Cl)cc3cccnc23)CC1 read 9.816%.
Cc1cc(C)nc(NC2CCOC3(CCCC3)C2)n1 (centres undefined) read 14.69%.
Cc1c(CN2Cc3nccn3CC2c2ccccc2)cnn1C (centres undefined) read 11.05%.
COc1cc2ncn(CC(=O)NCCCN(C)C)c(=O)c2cc1OC read 12.03%.
CCCn1nc(C(=O)N(C)Cc2nnc3n2CCC3)ccc1=O read 14.18%.
O=S(=O)(NCC1COc2ccccc2C1)N1CCOCC1 (centres undefined) read 10.63%.
CCN1CCn2c(-c3cccc(F)c3)cnc2C12CCN(C(C)=O)CC2 read 3.846%.
CS(=O)(=O)NCC1CCCN(C(=O)c2ccc3c(c2)CCCC3)C1 (centres undefined) read 9.699%.
Cc1nc(C)n(CC2CCCN2CC(=O)Nc2cc(C)on2)n1 (centres undefined) read 13.68%.
COc1c(C2CCCN2C(=O)c2cncnc2C)c(C)nn1C (centres undefined) read -1.045%.
CCN(CC)S(=O)(=O)CCNc1nnc(C(C)C)s1 read -0.6211%.
Nc1nccnc1C(=O)NCCCNc1ccc(C(F)(F)F)cn1 read 17.89%.
COc1cccc(CN2CCCC2c2ccc[nH]2)c1 (centres undefined) read 8.075%.
CCC(C)NC(=O)c1cncc(Br)c1 (centres undefined) read 8.933%.
CC(C)c1noc(CCC(=O)N2CCSCC2)n1 read 7.042%.
O=C(c1ccccc1F)N1C[C@@H]2COC[C@]2(COCc2cccnc2)C1 read -0.7092%.
CNc1ccc(CC2CCCN(Cc3c[nH]cn3)C2)nn1 (centres undefined) read 16.8%.
Cc1ccc(-c2nnc(C(C)N3CCc4cncnc4C3)o2)cc1 (centres undefined) read 8.01%.
COCC(=O)Nc1nn(Cc2ccc(F)cc2)cc1Cl read 8.355%.
CN(C)CCN1CCN(Cc2ccco2)Cc2cccnc21 read 8.122%.
CCOc1ncccc1CNC(=O)c1cccc(C)n1 read 19.2%.
CN(Cc1ccccc1)C(=O)[C@@H]1Cc2[nH]cnc2CN1C read 0.5495%.
COCC(C)(NC(=O)c1cc(Cl)c(-n2cccc2)cc1OC)C(N)=O (centres undefined) read 13.45%.
Cc1nc(CCCNC(=O)c2cc(F)ccc2O)n[nH]1 read 16.52%.
Cc1nc(C)n(CC2CN(CCOc3ccc(C#N)cc3)CCO2)n1 (centres undefined) read 15.9%.
c1csc(CN2CCC3(COCCN(CC4CC4)C3)C2)n1 (centres undefined) read 10.73%.
COc1cc(CC(O)CO)c(OC)c2c1OCO2 (centres undefined) read 6.224%.

For reference, 3 entries once more:

compound	inhibition
CN(C)CCN1CCN(Cc2ccco2)Cc2cccnc21	8.122%
CN(Cc1ccccc1)C(=O)[C@@H]1Cc2[nH]cnc2CN1C	0.5495%
CCCn1nc(C(=O)N(C)Cc2nnc3n2CCC3)ccc1=O	14.18%